Data reported in the supplement of paper PMC6411743.
± gives the standard deviation of the averaged measurements. The list shows a part of the results, in another mix than the full data.

Target: UniProt P07900 and related entries
Assay: NP40-soluble protein abundance relative to vehicle (solubility fold change) (ratio); higher = more soluble protein in presence of ATP
In short: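 Values are fold changes against the detergent-processed vehicle, based on vsn-normalised intensities. Jurkat crude lysate was treated at eight concentrations from 0.1 to 10 mM (10 min at room temperature, then 3 min at 37 °C), solubilised with 0.8% NP40 and benzonase, ultracentrifuged and analysed by TMT-labelled LC-MS/MS over three independent experiments.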

## Nc1ncnc2c1ncn2[C@@H]1O[C@H](COP(=O)(O)OP(=O)(O)OP(=O)(O)O)[C@@H](O)[C@H]1O [adenosine triphosphate]
concentration: 1mM
  NP40-soluble protein abundance: 1 ± 0.018
concentration: 2mM
  NP40-soluble protein abundance: 0.994 ± 0.011
concentration: 4mM
  NP40-soluble protein abundance: 0.965 ± 0.024
concentration: 6mM
  NP40-soluble protein abundance: 0.988 ± 0.027
concentration: 8mM
  NP40-soluble protein abundance: 0.952 ± 0.017
concentration: 10mM
  NP40-soluble protein abundance: 0.952 ± 0.051
